Results on 1 substance are retold here after article PMC10200693.

No constants are given. Whether binding was seen depends on the method and setting. In cells and extracts the contact can be indirect.

In the experiment the target is increased sodium tolerance 1 (IST1) (human (endogenous in moDCs)) (UniProt P53990). Kind of experiment: co-IP; endogenous IST1 immunoprecipitated from moDC lysates as for the mass spectrometry; Western blot probed for IST1 and for integrin β2 (goat anti-integrin beta 2/CD18, 1:1,000).

With “integrin β2 (from UniProt P05107 23-769) (receptor)”, the binding entry is recorded as “no binding”.
